No constants are given. Whether binding was seen depends on the method and setting. In cells and extracts the contact can be indirect. Binding calls can cover weak binding; strength is not graded here. For some assays here: Sequences can lack the tags named with a protein. Blank lines part the entries; values can stand above or below the molecule they belong to.
Key:
Experiment in all cases: co-IP
[1] = biological target: Flag-TRIM28 (H1299) (human) (UniProt Q13263)
[2] = biological target: Flag-TRIM28 (HEK293T) (human) (UniProt Q13263)
[3] = biological target: Flag-MAGEA6 MutB (human (cDNA from H1299 cells)) (UniProt P43360)
[4] = biological target: Flag-MAGEA6 MutA (human (cDNA from H1299 cells)) (UniProt P43360)

Protein sequences, listed by entry. Tags and fused reporters are not part of them. Lines headed by an entry give the natural chain unless they say otherwise; changes in a name come on top.
UniProt Q13263: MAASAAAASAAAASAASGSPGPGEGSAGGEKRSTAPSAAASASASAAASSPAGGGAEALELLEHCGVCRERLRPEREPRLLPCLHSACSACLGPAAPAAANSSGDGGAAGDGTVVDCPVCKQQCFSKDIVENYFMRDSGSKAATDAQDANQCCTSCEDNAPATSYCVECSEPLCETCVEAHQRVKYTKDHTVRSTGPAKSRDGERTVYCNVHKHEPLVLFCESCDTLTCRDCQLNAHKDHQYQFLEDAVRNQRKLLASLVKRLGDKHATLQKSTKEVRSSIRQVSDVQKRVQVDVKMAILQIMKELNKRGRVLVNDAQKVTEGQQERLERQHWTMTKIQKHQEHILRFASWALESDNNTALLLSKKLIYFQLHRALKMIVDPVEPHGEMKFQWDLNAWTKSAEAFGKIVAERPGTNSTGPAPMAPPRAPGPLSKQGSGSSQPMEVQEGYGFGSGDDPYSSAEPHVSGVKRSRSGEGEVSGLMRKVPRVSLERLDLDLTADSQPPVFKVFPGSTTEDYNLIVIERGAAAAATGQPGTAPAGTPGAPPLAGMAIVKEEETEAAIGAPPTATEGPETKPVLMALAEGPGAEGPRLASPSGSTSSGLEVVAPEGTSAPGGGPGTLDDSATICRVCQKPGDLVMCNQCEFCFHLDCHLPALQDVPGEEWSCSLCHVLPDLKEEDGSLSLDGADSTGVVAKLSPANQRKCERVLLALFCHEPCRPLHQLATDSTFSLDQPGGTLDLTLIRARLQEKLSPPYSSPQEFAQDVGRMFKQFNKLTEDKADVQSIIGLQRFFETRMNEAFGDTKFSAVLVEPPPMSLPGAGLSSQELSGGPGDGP
UniProt P43360: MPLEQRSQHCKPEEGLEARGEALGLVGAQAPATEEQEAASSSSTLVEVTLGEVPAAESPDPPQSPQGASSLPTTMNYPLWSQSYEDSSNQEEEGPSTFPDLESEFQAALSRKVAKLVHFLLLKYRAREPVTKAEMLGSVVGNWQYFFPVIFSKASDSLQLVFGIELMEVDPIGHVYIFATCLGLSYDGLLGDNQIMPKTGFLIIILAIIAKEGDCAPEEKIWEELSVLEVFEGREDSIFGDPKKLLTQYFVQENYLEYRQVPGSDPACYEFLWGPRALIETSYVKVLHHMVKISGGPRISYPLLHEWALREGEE
UniProt P28074: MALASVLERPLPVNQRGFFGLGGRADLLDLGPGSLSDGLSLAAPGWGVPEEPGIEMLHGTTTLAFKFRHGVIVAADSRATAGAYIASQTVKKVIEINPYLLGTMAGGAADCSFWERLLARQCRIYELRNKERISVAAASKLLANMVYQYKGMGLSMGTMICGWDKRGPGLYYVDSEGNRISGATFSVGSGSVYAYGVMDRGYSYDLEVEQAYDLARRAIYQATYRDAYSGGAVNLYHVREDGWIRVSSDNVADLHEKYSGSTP

- binding [1]: binds
Molecule: endogenous PSMB5 (H1299) (from UniProt P28074)

- binding [2]: binds
Molecule: endogenous PSMB5 (HEK293T) (from UniProt P28074)

- binding [3]: binds
Molecule: endogenous TRIM28 (HEK293T) (from UniProt Q13263 1-835)

- binding [4]: binds
- binding [3]: binds
B1: HA-ALKBH2 (HEK293T) (protein, UniProt Q6NS38 1-261)
chain: MDRFLVKGAQGGLLRKQEEQEPTGEEPAVLGGDKESTRKRPRREAPGNGGHSAGPSWRHIRAEGLDCSYTVLFGKAEADEIFQELEKEVEYFTGALARVQVFGKWHSVPRKQATYGDAGLTYTFSGLTLSPKPWIPVLERIRDHVSGVTGQTFNFVLINRYKDGCDHIGEHRDDERELAPGSPIASVSFGACRDFVFRHKDSRGKSPSRRVAVVRLPLAHGSLLMMNHPTNTHWYHSLPVRKKVLAPRVNLTFRKILLTKK

— publication doi:10.1101/2025.11.21.689678 (bioRxiv, 2025)
